These are yes or no findings as the source states them, for the method shown. Tags and fused reporters may be left off the sequences shown.
Biological target: intracellular domain of IA-2 fused to thioredoxin (TrxIA-2ic) (human) (UniProt Q16849)
Experiment: condition: only with 8 M urea and 100 mM dithiothreitol; western blot after reduction with dithiothreitol; TrxIA-2ic under denaturing and reducing conditions (8 M urea and 100 mM dithiothreitol); western blot with rabbit polyclonal serum to IA-2ic; both purified

B1: intracellular domain of IA-2 fused to thioredoxin (TrxIA-2ic) (domain or fragment, human, UniProt Q16849 604-979, looked up)
chain: ARQQDKERLAALGPEGAHGDTTFEYQDLCRQHMATKSLFNRAEGPPEPSRVSSVSSQFSDAAQASPSSHSSTPSWCEEPAQANMDISTGHMILAYMEDHLRNRDRLAKEWQALCAYQAEPNTCATAQGEGNIKKNRHPDFLPYDHARIKLKVESSPSRSDYINASPIIEHDPRMPAYIATQGPLSHTIADFWQMVWESGCTVIVMLTPLVEDGVKQCDRYWPDEGASLYHVYEVNLVSEHIWCEDFLVRSFYLKNVQTQETRTLTQFHFLSWPAEGTPASTRPLLDFRRKVNKCYRGRSCPIIVHCSDGAGRTGTYILIDMVLNRMAKGVKEIDIAATLEHVRDQRPGLVRSKDQFEFALTAVAEEVNAILKALPQ
notes: insulinoma associated protein tyrosine phosphatase 2 (IA-2), human, intracellular domain IA-2ic, residues 604 to 979 of the 979-residue protein; codon-optimised synthetic gene adapted from GenBank L18983.1; Thioredoxin was not removed; also called thioredoxin-fused insulinoma associated protein tyrosine phosphatase 2; not shown: thioredoxin (E. coli), N-terminal, kept
How did the binding turn out when B1 was run?
The binding was “no binding”.

Source: PMC5122161, “Novel prokaryotic expression of thioredoxin-fused insulinoma associated protein tyrosine phosphatase 2 (IA-2), its characterization and immunodiagnostic application” (BMC Biotechnology, 2016)
